These results are taken from PubChem BioAssay AID200 (DTP/NCI, 2004).

In this experiment the test system is B6C3F1 mice, B16 melanoma ip, median survival T/C. The experiment in a line: NCI In Vivo Anticancer Drug Screen. Data for tumor model B16 Melanoma (intraperitoneal) in B6C3F1 mice. To be noted: T/C endpoint: median survival time, higher T/C = longer survival. The procedure, abridged:
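Antitumor effect was judged in mice with transplanted tumors by dividing the treated group's survival measure by that of vehicle controls.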

Setting [1] is: dose: 25.0 mg/kg/injection, schedule: Q01DX009 (ip), vehicle: distilled water + Tween-80 + alcohol.
The mark [2] stands for this setting: dose: 50.0 mg/kg/injection, schedule: Q01DX009 (ip), vehicle: saline with Tween-80.
Where [3] appears, read: dose: 100.0 mg/kg/injection, schedule: Q01DX009 (ip), vehicle: saline with Tween-80.
[4] abbreviates: dose: 200.0 mg/kg/injection, schedule: Q01DX009 (ip), vehicle: saline with Tween-80.
[5] abbreviates: dose: 400.0 mg/kg/injection, schedule: Q01DX009 (ip), vehicle: saline with Tween-80.
The mark [6] stands for this setting: dose: 8.0 mg/kg/injection, schedule: Q01DX009 (ip), vehicle: saline.

The list does not hold the whole screen: it is rich in T/C values a quarter to a half above the control, in often repeated tests (any T/C) and in doses without a T/C. Other doses and runs of a compound stand elsewhere. T/C gives the treated animals as a percentage of the vehicle group. Some doses have a count of surviving animals in place of a T/C: the source files T/C as zero there, which appears to mark a toxic dose or a test without result, not a measured value. Some doses without a T/C left all or most animals alive at the check, yet need not have been tolerated: survival well below the control is almost never listed, so the zero probably covers shortened survival too. Counts of survivors are from the toxicity check (mostly the fifth day) where no day follows; animals may have died later. Schedules are NCI's codes, read here as Q, the interval in days (D) or hours (H), X, the number of doses. Some doses were run more than once; their values stand side by side, smallest first. Additions like (4×) count equal records among those shown. For survival time, the PubChem record calls one and a half times the control and up active, and a quarter to a half above the control has no call in these data; cut-offs in other NCI protocols can differ. Some T/C values are followed by the survivors on the day toxicity was checked, most often the fifth; without a count, all were alive then.

Regarding `COc1cccc2c1C(=O)c1c(O)c3c(c(O)c1C2=O)C[C@@](O)(C(O)CO)C[C@@H]3OC1CC(N(Cc2ccccc2)Cc2ccccc2)C(O)C(C)O1` (stereo partly specified), the T/C is, setting by setting: (dose: 12.5 mg/kg/injection, schedule: Q01DX001 (ip), vehicle: water) 127 % of control; (dose: 25.0 mg/kg/injection, schedule: Q01DX001 (ip), vehicle: water) 140 % of control; (dose: 25.0 mg/kg/injection, schedule: Q01DX009 (ip), vehicle: water) 149 % of control. Also, the survivor count reads like this: (dose: 100.0 mg/kg/injection, schedule: Q01DX009 (ip), vehicle: water) 9 of 10; (dose: 200.0 mg/kg/injection, schedule: Q01DX009 (ip), vehicle: water) 9 of 10; (dose: 400.0 mg/kg/injection, schedule: Q01DX009 (ip), vehicle: water) 5 of 10.
Take `Cc1cc(NCCCCCCNc2cc(C)nc3cc(N(C)C)ccc23)c2ccc(N(C)C)cc2n1`: the T/C was 127 % of control (dose: 3.0 mg/kg/injection, schedule: Q01DX009 (ip), vehicle: distilled water + Tween-80 + alcohol); 129 % of control (dose: 6.0 mg/kg/injection, schedule: Q01DX009 (ip), vehicle: distilled water + Tween-80 + alcohol); 144 % of control under setting [1]. Further, the survivor count reads like this: under setting [1], 9 of 10; (dose: 50.0 mg/kg/injection, schedule: Q01DX009 (ip), vehicle: distilled water + Tween-80 + alcohol) 6 of 10; (dose: 100.0 mg/kg/injection, schedule: Q01DX009 (ip), vehicle: distilled water + Tween-80 + alcohol) 0 of 10.
On to `NC(=O)c1ncn2c(=O)n(CCCl)nnc12`, for which the T/C (dose: 6.25 mg/kg/injection, schedule: Q01DX009 (ip), vehicle: suspension in saline) is 148 % of control. The survivor count (dose: 50.0 mg/kg/injection, schedule: Q01DX009 (ip), vehicle: suspension in saline) is recorded as 10 of 10.
In the case of `O=C(O)CC1C(=O)OC2C3COC(=O)c4cc(O)c(O)c(O)c4-c4c(cc(O)c(O)c4O)C(=O)OC2C(OC(=O)c2cc(O)c(O)c4c2C1C(O)C(=O)O4)C(OC(=O)c1cc(O)c(O)c(O)c1)O3` (stereo unspecified), for the setting “dose: 3.12 mg/kg/injection, schedule: Q01DX009 (ip), vehicle: saline”, the survivor count is on record as 10 of 10.
`O=Cc1c(O)c2ccccc2[nH]c1=O`: the T/C reads like this: (dose: 25.0 mg/kg/injection, schedule: Q01DX009 (ip), vehicle: saline with Tween-80) 136 % of control; under setting [2], 132 and 134 % of control; under setting [3], 141 % of control. Moreover, the survivor count is, setting by setting: under setting [3], 8 of 10; under setting [4], 3 of 10 and 6 of 10.
`O=C1NCC(Br)C(=O)N1` (stereo unspecified): the survivor count by setting is: under setting [2], 10 of 10; (dose: 200.0 mg/kg/injection, schedule: Q01DX009 (ip), vehicle: saline + Tween-80 + alcohol) 8 of 10; under setting [4], 7 of 10; (dose: 400.0 mg/kg/injection, schedule: Q01DX009 (ip), vehicle: saline + Tween-80 + alcohol) 2 of 10; under setting [5], 0 of 10 and 7 of 10. The T/C under setting [3] is 131 % of control and the T/C under setting [4] is 127 % of control.
Regarding `CCC(C)C(=O)O[C@H]1C(=O)O[C@@H]2C[C@H]3C(C)=CC(=O)[C@@H](O)[C@]3(C)[C@H]3[C@@H](O)[C@H](O)[C@@]4(C)OC[C@]32[C@@H]14` (stereo partly specified), the T/C by setting is: (dose: 0.5 mg/kg/injection, schedule: Q01DX009 (ip), vehicle: saline + alcohol) 146 % of control; (dose: 2.0 mg/kg/injection, schedule: Q01DX009 (ip), vehicle: saline + alcohol) 134 % of control; (dose: 4.0 mg/kg/injection, schedule: Q01DX009 (ip), vehicle: saline + alcohol) 145 % of control.
On to `O=C(N/N=C/c1cccc(O)c1O)N/N=C/c1cccc(O)c1O`, for which the survivor count under setting [5] is 10 of 10.
For the compound `O=C1CC2(C(=O)N1CN1CCCCC1)c1ccccc1-c1ccccc12`, the survivor count (dose: 400.0 mg/kg/injection, schedule: Q01DX009 (ip), vehicle: Klucel (hydroxypropylcellulose) (HPC)) is recorded as 10 of 10.
Regarding `Cc1cn(C2CC(F)C(CO)O2)c(=O)[nH]c1=O` (stereo unspecified), the T/C is, setting by setting: (dose: 500.0 mg/kg/injection, schedule: Q01DX009 (ip), vehicle: suspension in saline) 128 % of control; (dose: 1000.0 mg/kg/injection, schedule: Q01DX009 (ip), vehicle: suspension in saline) 127 % of control.
`Cc1c(C)c2c(c(C)c1OC(=O)CCC(=O)O)CCC(C)(CCCC(C)CCCC(C)CCCC(C)C)O2` (stereo unspecified): the survivor count (dose: 400.0 mg/kg/injection, schedule: Q01DX009 (ip), vehicle: distilled water + Tween-80 + alcohol) is on record as 4 of 9.
With `C(COCCOCC1CO1)OCCOCC1CO1` (stereo unspecified), the T/C (dose: 100.0 mg/kg/injection, schedule: Q01DX009 (ip), vehicle: saline) was 130 % of control.
For `N[C@@H](Cc1ccc(N(CCCl)CCCl)cc1)C(=O)O`, the T/C was 141 and 148 % of control (dose: 0.5 mg/kg/injection, schedule: Q01DX009 (ip), vehicle: saline, evaluated on day 55); 122, 123, 126 [9 of 10 alive], 142, 143 (2×), 147, 160, 174 % of control (dose: 0.5 mg/kg/injection, schedule: Q01DX009 (ip), vehicle: saline, evaluated on day 60); 147 % of control (dose: 0.5 mg/kg/injection, schedule: Q01DX009 (ip), vehicle: water); 137 % of control (dose: 1.0 mg/kg/injection, schedule: Q01DX009 (ip), vehicle: saline with Tween-80); 161 and 162 % of control (dose: 1.0 mg/kg/injection, schedule: Q01DX009 (ip), vehicle: saline, evaluated on day 55); 155, 156, 159 [9 of 10 alive], 161 [9 of 10 alive], 166, 178, 195, 197, 201 % of control (dose: 1.0 mg/kg/injection, schedule: Q01DX009 (ip), vehicle: saline, evaluated on day 60). For the same compound, the T/C was 178 and 182 % of control (dose: 2.0 mg/kg/injection, schedule: Q01DX009 (ip), vehicle: saline, evaluated on day 55); 102, 159 (2×), 168, 177, 193, 196, 206, 223 % of control (dose: 2.0 mg/kg/injection, schedule: Q01DX009 (ip), vehicle: saline, evaluated on day 60); 172 [9 of 10 alive] and 272 % of control (dose: 4.0 mg/kg/injection, schedule: Q01DX009 (ip), vehicle: saline, evaluated on day 55); 98, 100, 115, 167, 189, 212, 257, 271 % of control (dose: 4.0 mg/kg/injection, schedule: Q01DX009 (ip), vehicle: saline, evaluated on day 60); 142 % of control (dose: 5.48 mg/kg/injection, schedule: Q01DX001 (ip), vehicle: other); 137 % of control [9 of 10 alive] (dose: 8.0 mg/kg/injection, schedule: Q01DX009 (ip), vehicle: saline with Tween-80). In addition, the T/C under setting [6] is 129 % of control. Besides, the survivor count (dose: 4.0 mg/kg/injection, schedule: Q01DX009 (ip), vehicle: saline) is 10 of 10; the survivor count (dose: 4.0 mg/kg/injection, schedule: Q01DX009 (ip), vehicle: water) is 10 of 10; the survivor count under setting [6] was 7 of 10, 9 of 10, 10 of 10 (3×), 6 of 6; the survivor count (dose: 8.0 mg/kg/injection, schedule: Q01DX009 (ip), vehicle: water) is given as 10 of 10; the survivor count (dose: 16.0 mg/kg/injection, schedule: Q01DX009 (ip), vehicle: saline) is recorded as 9 of 10.
For `Oc1cccc2ccccc12`, under “dose: 400.0 mg/kg/injection, schedule: Q01DX009 (sc), vehicle: other”, the survivor count was 0 of 10.
With `CCC1=C[C@H]2CN(CCc3c([nH]c4ccccc34)[C@@](C(=O)OC)(c3cc4c(cc3OC)N(C)[C@H]3[C@@](O)(C(=O)NC)[C@H](OC(C)=O)[C@]5(CC)C=CCN6CC[C@]43[C@@H]65)C2)C1`, the survivor count (dose: 1.0 mg/kg/injection, schedule: Q01DX009 (ip), vehicle: saline) is 10 of 10.
